We go through 42 sequences from publication PMC7819943, “Rice protein-binding microarrays: a tool to detect cis-acting elements near promoter regions in rice”.

The chains behind the UniProt entries cited, without tags or fusion partners.
UniProt Q0JBA9, entry or part of it: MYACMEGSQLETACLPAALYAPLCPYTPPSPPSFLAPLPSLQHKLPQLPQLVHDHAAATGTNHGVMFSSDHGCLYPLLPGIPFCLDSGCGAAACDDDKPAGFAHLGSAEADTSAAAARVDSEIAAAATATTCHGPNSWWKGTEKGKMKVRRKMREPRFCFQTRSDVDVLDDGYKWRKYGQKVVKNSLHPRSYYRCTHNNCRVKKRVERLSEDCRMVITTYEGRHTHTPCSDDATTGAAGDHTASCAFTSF

The list shows a part of the results.

In this experiment the target is OsWRKY34 (Oryza sativa, UniProt Q0JBA9 1-250). Kind of experiment: protein-binding microarray (RPBM); PBS, 2% BSA, 51.3 ng/ul salmon testes DNA, 50 uM zinc acetate, 200 nM TF, 25 C, 1 h; high values mean tight binding. The settings on record: protein: recombinant; tags: N-terminal polyhistidine and DsRed monomer fusion (pET32a); label: CyDye5-dUTP incorporated in the synthesized complementary strand; 3' TTTTT single-stranded linker to array surface; dsDNA, one strand shown. Summed up:
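Transcription factors, each fused N-terminally to a polyhistidine tag and DsRed, were expressed in E. coli BL21-CodonPlus and purified on Ni–NTA. A custom Agilent array was made double-stranded by primer extension with Cy5-dUTP and blocked with 2% BSA. It was incubated with 200 nM protein in PBS, 2% BSA, salmon testes DNA and 50 µM zinc acetate at 25 °C for 1 h, then washed. The binding signal is per-feature fluorescence intensity (arbitrary units) read on an Axon 4000B scanner.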
“GGCATTCTCTGTACTTTGGCTGTCACGCACGCACGCGTGGCGGAGTCACCTAGTGCAG”: the binding signal was 9760 fluorescence intensity (a.u.).

Regarding “CCTTTTCTCCATCCGCCTCTTTCTTTTTTTCTCTCTCGCTCGGAGTCACCTAGTGCAG”, the binding signal was 8360 fluorescence intensity (a.u.).

Regarding “CCAACTCGCGCAACTGATTTTGTGTTTTTGTTTGGCTCATCGGAGTCACCTAGTGCAG”, the binding signal is 9090 fluorescence intensity (a.u.).

As for “TCCGTATTTTAATTAACGACGTCGTTGACTTTTTAACCACCGGAGTCACCTAGTGCAG”, the binding signal was 24200 fluorescence intensity (a.u.).

With “CTTAGGTCAACACCGAAAACTAATCACCATGTTGACTTTGCGGAGTCACCTAGTGCAG”, the binding signal is 9710 fluorescence intensity (a.u.).

“CCATTCCTGCTTCCGCCCTTGTATATGTATCGACTTGTCACGGAGTCACCTAGTGCAG”: the binding signal is 9190 fluorescence intensity (a.u.).

Regarding “TACCCCTCCGTTTCATATGATAAGTTGTTTGACTTTTTTTCGGAGTCACCTAGTGCAG”, the binding signal is 14300 fluorescence intensity (a.u.).

As to “GAGAGCTATGTTAACCATTTGTGTTTTTGCAGTATCATAACGGAGTCACCTAGTGCAG”, the binding signal was 8580 fluorescence intensity (a.u.).

Consider “ACCTGTCCCCAACCGAAAAGGCAAAATTGACGCCCAAACTCGGAGTCACCTAGTGCAG”, for which the binding signal was 8580 fluorescence intensity (a.u.).

For “TCCTCGCGCCGCCATAAATCCTCGTCTCCCGTACCAACTACGGAGTCACCTAGTGCAG”, the binding signal is 10500 fluorescence intensity (a.u.).

Regarding “TTTTTTCGACCGCTCGAGCGCCCAACGCGCAGCATTTCCCCGGAGTCACCTAGTGCAG”, the binding signal was 8350 fluorescence intensity (a.u.).

For the sequence “AAGCCCACCTCCAACCAACCACTCTGCCCCAAAACCATTTCGGAGTCACCTAGTGCAG”, the binding signal was 9080 fluorescence intensity (a.u.).

With “AGGGGCCCTTTCCTAACACTGCCCATTGCCAACCTATCCACGGAGTCACCTAGTGCAG”, the binding signal is 8720 fluorescence intensity (a.u.).

As for “ACCCTTTTGAAAACGCAGCATGAATAATTCATTACCTGTTCGGAGTCACCTAGTGCAG”, the binding signal is 9120 fluorescence intensity (a.u.).

Consider “GTACTCATCGGTTCATTGTCCAGCTCCAGCAGTTGATCTTCGGAGTCACCTAGTGCAG”, for which the binding signal is 11700 fluorescence intensity (a.u.).

As to “ACAGATTGTGTCACATTGTTATTTTCTCACTCTTTTATTTCGGAGTCACCTAGTGCAG”, the binding signal was 10900 fluorescence intensity (a.u.).

For the sequence “TAAAAGAAGGGCTATGGTGTGTACTTGTGTTATTGCTTTTCGGAGTCACCTAGTGCAG”, the binding signal was 11800 fluorescence intensity (a.u.).

With “CTCATTGTTTCCTCTAAAAAGAGGTATTTCTTATTGGGTTCGGAGTCACCTAGTGCAG”, the binding signal was 8470 fluorescence intensity (a.u.).

On to “GAACCCACATCCCACCATGACGCGCAATTACCTCATTATCCGGAGTCACCTAGTGCAG”, for which the binding signal was 17000 fluorescence intensity (a.u.).

“CTTGTACGTGTTGACGCCATTTGAAGCCTTCCATTTGACGCGGAGTCACCTAGTGCAG”: the binding signal was 9050 fluorescence intensity (a.u.).

As for “TTGTTTGCCATGTTGATGGTATTGTTTACTGCTCTTGAAACGGAGTCACCTAGTGCAG”, the binding signal was 9770 fluorescence intensity (a.u.).

For the sequence “TCTTGGCTTCTTGATGATTTGCTCTTAGCTGCTGTTCTATCGGAGTCACCTAGTGCAG”, the binding signal is 8400 fluorescence intensity (a.u.).

For “GGGTTGCTTATACTTTCACTTTACACCAAGTTATTTTAAACGGAGTCACCTAGTGCAG”, the binding signal is 10300 fluorescence intensity (a.u.).

For the sequence “AATCTTTTAATTTGTTAAGCTCTCTATCTCTATTTCTATCCGGAGTCACCTAGTGCAG”, the binding signal was 8180 fluorescence intensity (a.u.).

Consider “CTCTATTACGAATGCGTGCACATGTGTTTGATTTCCTGTTCGGAGTCACCTAGTGCAG”, for which the binding signal is 10100 fluorescence intensity (a.u.).

On to “TCCTCATCTTGTGCTCTCAAGTGTTTTAAGTGCTCTCTTTCGGAGTCACCTAGTGCAG”, for which the binding signal was 10500 fluorescence intensity (a.u.).

Take “TATTTGGCCCACCACAAGTCAATCGCGCCCCTTTCTTCTCCGGAGTCACCTAGTGCAG”: the binding signal is 8500 fluorescence intensity (a.u.).

Take “GAGTTCTTGCGGCGACCACCTATTTTCTTCCCGATTTACTCGGAGTCACCTAGTGCAG”: the binding signal is 8900 fluorescence intensity (a.u.).

As for “TATAAACAAACCACTCGCCGCGCCGCATCAGTCGTAACCACGGAGTCACCTAGTGCAG”, the binding signal was 8580 fluorescence intensity (a.u.).

For the sequence “CAGTTTGAGTTTTTGTTAGTTATTTCGTTTATTTTTTTTTCGGAGTCACCTAGTGCAG”, the binding signal was 12300 fluorescence intensity (a.u.).

Consider “ACATTTTTGTTTGCATAGCTCTTTCACATTCATGCATAAGCGGAGTCACCTAGTGCAG”, for which the binding signal was 9450 fluorescence intensity (a.u.).

With “TGAGGGATGCTTTTTAAGTTTTTGGGTGTTGGTCAGATCTCGGAGTCACCTAGTGCAG”, the binding signal is 9910 fluorescence intensity (a.u.).

For the sequence “AACACGATCTACTTTCTTCATACGCAGTACTCTCTCCATACGGAGTCACCTAGTGCAG”, the binding signal is 8350 fluorescence intensity (a.u.).

Turning to “CCGTCACCTTTCTCTGCTCGGCCTGCAGCCCACAAGTGGACGGAGTCACCTAGTGCAG”, the binding signal was 9510 fluorescence intensity (a.u.).

For “GCCCATAACTAGGCCTGAGCCCATGTAGCCTTCCGTGAACCGGAGTCACCTAGTGCAG”, the binding signal was 9840 fluorescence intensity (a.u.).

Consider “GCTTCCTTCTTCTCCCGCGCCCGGCGCCCGCACCGAACCACGGAGTCACCTAGTGCAG”, for which the binding signal was 8580 fluorescence intensity (a.u.).

As to “ATTTTTACCCTTCTCCTGTGTTTTTGTTGCTGTGATTCAACGGAGTCACCTAGTGCAG”, the binding signal is 8570 fluorescence intensity (a.u.).

Regarding “ATGGCCGCAACTTGTGCAGATTTTTGTGTGTGAAGAAGAACGGAGTCACCTAGTGCAG”, the binding signal was 8090 fluorescence intensity (a.u.).

For “CATAAAACACTATAAATCAAGCACTACCTTCACCATTTTTCGGAGTCACCTAGTGCAG”, the binding signal is 8740 fluorescence intensity (a.u.).

Consider “ACTATTGACTTTTTTTCTATGTTAGACCATTCATTTTATTCGGAGTCACCTAGTGCAG”, for which the binding signal was 12300 fluorescence intensity (a.u.).

Take “CGCCCGCGCCATCTTGCGCCGCTACTCACCTCTTACCCTACGGAGTCACCTAGTGCAG”: the binding signal was 9320 fluorescence intensity (a.u.).

With “CTTGCCTTTTCTGACTCGCTCTCTCTCTCTCTCTCTATATCGGAGTCACCTAGTGCAG”, the binding signal is 10200 fluorescence intensity (a.u.).
